{
  "source": "patent US20060057198A1",
  "about": "“Drug delivery from embolic agents” (BIOCOMPATIBLES UK LIMITED, priority 2003, published 2006)",
  "settings": "over 168 hours, 30 mg/ml in ethanol, low or high AMPS",
  "data": [
    {"compound": "COc1ccc2cc([C@H](C)C(=O)O)ccc2c1", "note": "[Naproxen]", "values": [
      {"measurement": "uptake", "result": "35-40 mg naproxen/ml of spheres"}
    ]}
  ]
}
